Source: patent US20090208936
For at least one entry, the source does not settle the construct or the ends of the probe. For part of these data: No signal at the amounts used counts as a negative.

Key:
[1] = system: alpha-thrombin (Homo sapiens); assay: binding assay; conditions: CITED reported 15mer aptamer-thrombin Kd used in calculation; purified native protein; protein details: Haematologic Technologies Inc.; single-stranded DNA
[2] = system: anti-human thrombin monoclonal antibody (AHT); assay: binding assay; conditions: FRET control without thrombin, no fluorescence change; purified native protein; protein details: Haematologic Technologies Inc.; label: 5'-6-FAM, 3'-Dabcyl; single-stranded DNA; variant of 15Ap
[3] = system: alpha-thrombin (Homo sapiens); assay: inhibition of the protein; conditions: PEG linker of eight 18-atom spacer units joining 15Ap and 27Ap; fibrinogen clotting by light scattering; enzymatic rate as much as 10 times slower compared to 15Ap; pH 7.4, 150 mM NaCl, 5 mM KCl, 1 mM MgCl2, 1 mM CaCl2; purified native protein; protein details: Haematologic Technologies Inc.; single-stranded DNA

GGTTGGTGTGGTTGG [15Ap]
Kd [1]: 75 nM

GGTTGGTGTGGTTGG [FQ-15Ap]
binding result [2]: no binding

GGTTGGTGTGGTTGGACCCGTGGTAGGGTAGGATGGGGTGGT [DA-8S]
functional effect of the aptamer (fold slower than 15Ap) [3]: 10
